Values of other authors, collected in patent publication US20260144805A1, “CANNABIDIOL COMPOSITIONS FOR USE IN THE TREATMENT OF NEURODEGENERATIVE AND NEUROLOGICAL DISORDERS” (JAZZ PHARMACEUTICALS RESEARCH UK LIMITED, priority 2022, published 2026).
Like-named read-outs stand apart in the source and are kept apart here.

Conditions: cited from earlier work

Question: For `C=C(C)[C@@H]1CCC(C)=C[C@H]1c1c(O)cc(CCCCC)cc1O` [sCBD, 2-[(1R,6R)-3-Methyl-6-(1-methylethenyl)-2-cyclohexen-1-yl]-5-pentyl-1,3-benzenediol], which solubility (organic solvents) is on record?
Answer: soluble in organic solvents

Question: And the solubility (water)?
Answer: insoluble in water
